# Experimental data published in patent US8324254B2, “Oxadiazole substituted indazole derivatives for use as sphingosine 1-phosphate (S1P) agonists” (Glaxo Group Limited, priority 2007, dated 2012).
# Chains of the proteins cited; added tags and fusions are not shown. Lines headed by an entry give the natural chain unless they say otherwise; changes in a name come on top.
# UniProt Q99500: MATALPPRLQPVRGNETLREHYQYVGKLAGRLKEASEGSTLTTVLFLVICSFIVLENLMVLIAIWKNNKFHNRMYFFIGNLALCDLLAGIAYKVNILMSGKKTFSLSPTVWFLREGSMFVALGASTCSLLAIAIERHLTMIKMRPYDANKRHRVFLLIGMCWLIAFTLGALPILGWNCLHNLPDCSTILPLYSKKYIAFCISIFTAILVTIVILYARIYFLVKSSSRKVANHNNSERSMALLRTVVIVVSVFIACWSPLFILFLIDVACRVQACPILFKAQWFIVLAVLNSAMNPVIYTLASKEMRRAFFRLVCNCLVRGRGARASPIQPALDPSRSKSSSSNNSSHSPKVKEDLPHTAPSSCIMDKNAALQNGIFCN
# Some results were stated once for a whole list of compounds, not compound by compound.
# Target: T1, human S1P3 receptor (Homo sapiens, UniProt Q99500)
# T1 construct: expressed in transfected cells; membranes
# Assay: S1P3 GTPγS binding assay
# Format: biochemical
# Conditions: S1P3 membranes from rat basophilic leukaemia cells (RBL-2H3), SPA beads, [35S]-GTPγS
row,SMILES,pEC50
1,"CC(C)Oc1ccc(-c2nc(-c3ccc4c(cnn4CCC(=O)O)c3)no2)cc1Cl [Example 1, 3-[5-(5-{3-Chloro-4-[(1-methylethyl)oxy]phenyl}-1,2,4-oxadiazol-3-yl)-1H-indazol-1-yl]propanoic acid]",< 6.5
2,"CCOc1ccc(-c2nc(-c3ccc4c(cnn4CCC(=O)[O-])c3)no2)cc1Cl.[Na+] [Example 2, Sodium 3-(5-{5-[3-chloro-4-(ethyloxy)phenyl]-1,2,4-oxadiazol-3-yl}-1H-indazol-1-yl)propanoate]",< 6.5
3,"CC(C)Oc1ccc(-c2nc(-c3ccc4c(cnn4CCC(=O)[O-])c3)no2)cc1C#N.[Na+] [Example 3, Sodium 3-[5-(5-{3-cyano-4-[(1-methylethyl)oxy]phenyl}-1,2,4-oxadiazol-3-yl)-1H-indazol-1-yl]propanoate]",< 6.5
4,"CC(C)Oc1ccc(-c2nc(-c3ccc4c(cnn4CCC(=O)O)c3)no2)cc1C#N [Example 4, 3-[5-(5-{3-Cyano-4-[(1-methylethyl)oxy]phenyl}-1,2,4-oxadiazol-3-yl)-1H-indazol-1-yl]propanoic acid]",< 6.5
5,"CC(C)Oc1ccc(-c2nc(-c3ccc4c(cnn4CCCC(=O)O)c3)no2)cc1C#N [Example 5, 4-[5-(5-{3-cyano-4-[(1-methylethyl)oxy]phenyl}-1,2,4-oxadiazol-3-yl)-1H-indazol-1-yl]butanoic acid]",< 6.5
6,"CC(C)Oc1ccc(-c2nc(-c3ccc4c(cnn4CCC(=O)O)c3)no2)cc1C(F)(F)F [Example 6, 3-(5-{5-[4-[(1-Methylethyl)oxy]-3-(trifluoromethyl)phenyl]-1,2,4-oxadiazol-3-yl}-1H-indazol-1-yl)propanoic acid]",< 6.5
7,"CC(C)Oc1ccc(-c2nc(-c3cccc4c3cnn4CCCC(=O)O)no2)cc1Cl [Example 7, 4-[4-(5-{3-Chloro-4-[(1-methylethyl)oxy]phenyl}-1,2,4-oxadiazol-3-yl)-1H-indazol-1-yl]butanoic acid]",< 6.5
8,"CC(C)Oc1ccc(-c2nc(-c3cccc4c3cnn4CCC(=O)O)no2)cc1Cl [Example 8, 3-[4-(5-{3-Chloro-4-[(1-methylethyl)oxy]phenyl}-1,2,4-oxadiazol-3-yl)-1H-indazol-1-yl]propanoic acid]",< 6.5
9,"CCCOc1ccc(-c2nc(-c3ccc4c(cnn4CCC(=O)O)c3)no2)cc1Cl [Example 9, 3-(5-{5-[3-chloro-4-(propyloxy)phenyl]-1,2,4-oxadiazol-3-yl}-1H-indazol-1-yl)propanoic acid]",< 6.5
10,"O=C(O)CCn1ncc2cc(-c3noc(-c4ccc(OC(F)(F)F)c(Cl)c4)n3)ccc21 [Example 10, 3-[5-(5-{3-chloro-4-[(trifluoromethyl)oxy]phenyl}-1,2,4-oxadiazol-3-yl)-1H-indazol-1-yl]propanoic acid]",< 6.5
11,"O=C(O)CCn1ncc2cc(-c3noc(-c4ccc(C5CCCCC5)c(C(F)(F)F)c4)n3)ccc21 [Example 11, sodium 3-(5-{5-[4-cyclohexyl-3-(trifluoromethyl)phenyl]-1,2,4-oxadiazol-3-yl}-1H-indazol-1-yl)propanoate]",< 6.5
12,"COc1ccc(-c2nc(-c3ccc4c(cnn4CCC(=O)O)c3)no2)cc1C(F)(F)F [Example 12, 3-(5-{5-[4-(methyloxy)-3-(trifluoromethyl)phenyl]-1,2,4-oxadiazol-3-yl}-1H-indazol-1-yl)propanoic acid]",< 6.5
13,"CC(C)Oc1ccc(-c2nc(-c3ccc4c(cnn4CC(=O)O)c3)no2)cc1C#N [Example 13, [5-(5-{3-cyano-4-[(1-methylethyl)oxy]phenyl}-1,2,4-oxadiazol-3-yl)-1H-indazol-1-yl]acetic acid]",< 6.5
14,"COc1ccc(-c2nc(-c3ccc4c(cnn4CCC(=O)O)c3)no2)cc1Cl [Example 14, 3-(5-{5-[3-chloro-4-(methyloxy)phenyl]-1,2,4-oxadiazol-3-yl}-1H-indazol-1-yl)propanoic acid]",< 6.5
15,"CCc1cc(-c2nc(-c3ccc4c(cnn4CCC(=O)[O-])c3)no2)ccc1N1CCCCC1.[Na+] [Example 15, sodium 3-(5-{5-[3-ethyl-4-(1-piperidinyl)phenyl]-1,2,4-oxadiazol-3-yl}-1H-indazol-1-yl)propanoate]",< 6.5
16,"CCc1cc(-c2nc(-c3ccc4c(cnn4CCC(=O)[O-])c3)no2)ccc1C1CCCCC1.[Na+] [Example 16, sodium 3-{5-[5-(4-cyclohexyl-3-ethylphenyl)-1,2,4-oxadiazol-3-yl]-1H-indazol-1-yl}propanoate]",< 6.5
17,"CC(C)Cc1ccc(-c2nc(-c3ccc4c(cnn4CCC(=O)O)c3)no2)cc1C#N [Example 17, 3-(5-{5-[3-cyano-4-(2-methylpropyl)phenyl]-1,2,4-oxadiazol-3-yl}-1H-indazol-1-yl)propanoic acid]",< 6.5
18,"CC(C)Oc1ccc(-c2nc(-c3ccc4c(cnn4CCC(=O)O)c3)no2)cc1Br [Example 18, 3-[5-(5-{3-bromo-4-[(1-methylethyl)oxy]phenyl}-1,2,4-oxadiazol-3-yl)-1H-indazol-1-yl]propanoic acid]",< 6.5
19,"CC(C)Cc1ccc(-c2nc(-c3ccc4c(cnn4CCC(=O)O)c3)no2)cc1Cl [Example 19, 3-(5-{5-[3-chloro-4-(2-methylpropyl)phenyl]-1,2,4-oxadiazol-3-yl}-1H-indazol-1-yl)propanoic acid]",< 6.5
20,"CC(C)Oc1ccc(-c2nc(-c3ccc4c(cnn4CCCC(=O)O)c3)no2)cc1C(F)(F)F [Example 20, 4-(5-{5-[4-[(1-methylethyl)oxy]-3-(trifluoromethyl)phenyl]-1,2,4-oxadiazol-3-yl}-1H-indazol-1-yl)butanoic acid]",< 6.5
21,"N#Cc1cc(-c2nc(-c3ccc4c(cnn4CCC(=O)O)c3)no2)ccc1-c1ccccc1 [Example 21, 3-{5-[5-(2-cyano-4-biphenylyl)-1,2,4-oxadiazol-3-yl]-1H-indazol-1-yl}propanoic acid]",< 6.5
22,"O=C(O)CCn1ncc2cc(-c3noc(-c4ccc(N5CCCC5)c(Cl)c4)n3)ccc21 [Example 22, 3-(5-{5-[3-chloro-4-(1-pyrrolidinyl)phenyl]-1,2,4-oxadiazol-3-yl}-1H-indazol-1-yl)propanoic acid]",< 6.5
23,"CC(C)Oc1ncc(-c2nc(-c3ccc4c(cnn4CCCC(=O)O)c3)no2)cc1Cl.Cl [Example 23, 4-[5-(5-{5-chloro-6-[(1-methylethyl)oxy]-3-pyridinyl}-1,2,4-oxadiazol-3-yl)-1H-indazol-1-yl]butanoic acid hydrochloride]",< 6.5
24,"CC(C)Oc1ncc(-c2nc(-c3ccc4nn(CCCC(=O)O)cc4c3)no2)cc1Cl.Cl [Example 24, 4-[5-(5-{5-chloro-6-[(1-methylethyl)oxy]-3-pyridinyl}-1,2,4-oxadiazol-3-yl)-2H-indazol-2-yl]butanoic acid hydrochloride]",< 6.5
25,"O=C(O)CCCn1ncc2cc(-c3noc(-c4ccc(-c5ccccc5)c(C(F)(F)F)c4)n3)ccc21 [Example 25, 4-(5-{5-[2-(trifluoromethyl)-4-biphenylyl]-1,2,4-oxadiazol-3-yl}-1H-indazol-1-yl)butanoic acid]",< 6.5
26,"O=C(O)CCCn1cc2cc(-c3noc(-c4ccc(-c5ccccc5)c(C(F)(F)F)c4)n3)ccc2n1 [Example 26, 4-(5-{5-[2-(trifluoromethyl)-4-biphenylyl]-1,2,4-oxadiazol-3-yl}-2H-indazol-2-yl)butanoic acid]",< 6.5
